Data as given in PubChem BioAssay AID720505 (Drosophila RNAi Screening Center, 2013)
Screen: 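Knock-downs that reduce calcium influx once internal stores are emptied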 (primary screen). Cells: Drosophila S2R+ cells. Reagents: long dsRNA against Drosophila genes. Treatment: thapsigargin (2 µM) in calcium-free buffer to empty internal stores, then 2 mM calcium added back. Measurement: 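Stores emptied by 2 µM thapsigargin without calcium, then 2 mM calcium re-added; fluo-4 fluorescence followed by FLIPR in 384-well plates, per-well averaged endpoint, raw; two screen passes, some wells retested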. Reading the numbers: calcium signal: higher = more calcium entry after store depletion. Call rule: 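Knock-downs counted as hits when calcium entry dropped relative to STIM1 positive and Rho1 negative controls present on each plate; roughly 1500 genes called, with reductions of differing size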. Meaning of the calls: active = called as lowering calcium entry; inactive = not called.
The deposit covers about 20,000 reagents; shown is an unselected part of those that have a named target and a result. In the full data, about 2,100 (10%) are marked active. 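Raw plate signals without normalisation; calls rest on control-based scores that were not deposited; replicate 2 separates called from uncalled poorly.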 Unmarked entries are inactive. Not stated in the record: the amount of reagent, the time to read-out.

Muc18B [DRSC20064] — calcium signal, replicate 1 = 73.4 (active); calcium signal, replicate 2 = 171
Muc18B [DRSC21644] — calcium signal, replicate 1 = 184; calcium signal, replicate 2 = 85.1
betaNACtes4 [DRSC19801] — calcium signal, replicate 1 = 105; calcium signal, replicate 2 = 107
CoRest [DRSC19881] — calcium signal, replicate 1 = 67.7 (active); calcium signal, replicate 2 = 97.6
CoRest [DRSC21626] — calcium signal, replicate 1 = 112; calcium signal, replicate 2 = 98.3
CoRest [DRSC22305] — calcium signal, replicate 1 = 108; calcium signal, replicate 2 = 212
GckIII [DRSC15729] — calcium signal, replicate 1 = 140; calcium signal, replicate 2 = 183
CG15432 [DRSC00447] — calcium signal, replicate 1 = 97.6; calcium signal, replicate 2 = 116
asp [DRSC16903] — calcium signal, replicate 1 = 147; calcium signal, replicate 2 = 267
esg [DRSC03530] — calcium signal, replicate 1 = 106; calcium signal, replicate 2 = 150
CG6277 [DRSC16008] — calcium signal, replicate 1 = 160; calcium signal, replicate 2 = 175
CG9752 [DRSC04562] — calcium signal, replicate 1 = 183; calcium signal, replicate 2 = 81.4

2 of these entries, reformatted.
{"target":"CoRest","dsRNA":"DRSC22305","calcium signal, replicate 1":108,"calcium signal, replicate 2":212}
{"target":"GckIII","dsRNA":"DRSC15729","calcium signal, replicate 1":140,"calcium signal, replicate 2":183}
